Measurements taken from US8846903B2, “Acyl-urea derivatives and uses thereof” (Yissum Research Development Company of the Hebrew …, priority 2007, dated 2014).

Tests used:
[1] = system: rats; test: Subcutaneous metrazol seizure threshold test (scMet) in rats; type: in vivo; settings: protective index = TD50/ED50, rats
Procedure: Subcutaneous Metrazole Seizure Threshold Test (scMet) assay measures the ability of an agent to elevate seizure threshold and is considered to model generalized absence seizures. The assay was performed by subcutaneous injection of 85 mg/kg of the convulsant agent metrazole that induces clonic seizures in at least 97% of all animal models (rats and mice).

[2] = system: rats; test: Maximal electroshock seizure test (MES) in rats; type: in vivo; settings: protective index = TD50/ED50, rats
Excerpt: Briefly, Maximal Electroshock Seizure (MES) assay measures drug capacity to prevent seizure spread and is thus considered to model generalized tonic-clonic seizures. […] The current was delivered to the subjects by means of corneal electrodes to produce tonic hind limb extension. Animals not displaying tonic hind limb extension were considered affected positively by the tested compound.

[3] = system: rats; settings: protective index TD50/ED50, reference substances from literature data; cited from earlier work

CC(C)C(C(=O)NC(N)=O)C(C)C [Compound 2, 1-(2-isopropyl-3-methylbutanoyl)urea]
PI in the scMet test [1]: 3.5 | PI in the MES test [2]: 1.7

CC1(C)C(C(=O)NC(N)=O)C1(C)C [Reference Compound 1, N-(2,2,3,3-tetramethylcyclopropanecarbonyl)urea]
PI in the MES test [3]: 18.5

CC[C@@H](C)[C@@H](CC)C(=O)NC(N)=O (racemic) [Compound 4, 1-(2-ethyl-3-methyl-pentanoyl)-urea]
PI in the scMet test [1]: 6.9 | PI in the MES test [2]: 4

CCCC(CCC)C(=O)O [Valproic acid, valproic acid]
PI in the MES test [3]: 1.6

CCCC(C(=O)NC(N)=O)C(C)C (racemic) [Compound 1, 1-(2-isopropylpentanoyl)urea]
PI in the scMet test [1]: 2 | PI in the MES test [2]: 6

CC(C)(C)CC(=O)NC(N)=O [Compound 3, 1-(3,3-dimethyl-butyryl)urea]
PI in the scMet test [1]: 5.5 | PI in the MES test [2]: 2.2

Where two headings read alike, the source gives them in different places.
